# Laboratory results published in PubChem BioAssay AID504834 (National Center for Advancing Translational Sciences (NCATS), 2011).
# Among all 320,000 compounds or so, about 22,000 (6.9%) were called active. The shares of active, inactive and inconclusive entries below differ from those in the screen. Calls come from the whole dose curve; as a rule, active = well fitted inhibition curve with a large enough effect; inconclusive = small, poorly fitted or top-dose-only effect, or another doubt; inactive = no such curve, though single readings can be large or run the other way. A potency beside an inconclusive call is a rough fit, not a confirmed value.
# Assay: Primary qHTS for delayed death inhibitors of the malarial parasite plastid, 96 hour incubation
# Conditions: P. falciparum luciferase reporter growth; series mostly up to 28.7 µM; activity change, negative = inhibition: at the top concentration
# Procedure, shortened: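 P. falciparum expressing integrated firefly luciferase grown in erythrocytes (2% hematocrit, 0.05% parasitemia final) with compounds for 96 hours at 37 C, 5% CO2. Growth inhibition read as loss of luminescence after adding luciferase detection reagent.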
# % is set by controls: 0 for no effect and ±100 for the full control effect; potency is the fitted concentration of half-maximal effect.
Structure (SMILES),"activity change, negative = inhibition",Potency
COc1ccc(S(=O)(=O)N2CCC(N3CCCC3)CC2)cc1,inactive: 0.679%,–
CC(=O)NC12CC3CC(C1)CC(C(=O)N1CCN(S(=O)(=O)c4cccc(C(F)(F)F)c4)CC1)(C3)C2,–,"inconclusive: 18.5 µM [inhibitor, single point]"
Cc1ccc(C(CNC(=O)Nc2cccc(C)c2)N2CCN(C)CC2)cc1 (stereo not drawn),–,"inconclusive: 18.5 µM [inhibitor, single point]"
CCC(C)NCC(=O)Nc1ccc(S(N)(=O)=O)cc1 (stereo not drawn),–,"inconclusive: 5.86 µM [inhibitor, partial curve, poor fit]"
Cc1ccc(C(=O)COC(=O)c2cn(-c3ccccc3)nc2-c2ccccc2)cc1[N+](=O)[O-],–,"inconclusive: 14.7 µM [inhibitor, partial curve, poor fit]"
Cc1ccc(C(=O)NC2CCN(CC(=O)NC3CCC(C)CC3)CC2)cc1 (stereo not drawn),inactive: -1.84%,–
C=CCNc1nc(N)c([N+](=O)[O-])c(NCCO)n1,inactive: 0.821%,–
O=C(Cc1ccc([N+](=O)[O-])cc1)N/N=C/c1cccs1,–,"inconclusive: 18.5 µM [inhibitor, partial curve, poor fit]"
Cc1sc2nc(CSc3nc4ccccc4c(=O)n3CCCN3CCOCC3)[nH]c(=O)c2c1C,–,"inconclusive: 10.4 µM [inhibitor, partial curve, poor fit]"
Cn1c(N/N=C2\CCCc3ccccc32)nc2c1c(=O)n(Cc1ccccc1)c(=O)n2C,–,"inconclusive: 3.29 µM [inhibitor, partial curve]"
COc1ccc(C(=O)NC(Nc2ccccc2)C(Cl)(Cl)Cl)cc1 (stereo not drawn),inactive: -0.877%,–
COc1ccc(-c2nnc(SCc3c(C)noc3C)o2)cc1,inactive: -8.8%,–
C=CCNc1nc(Nc2ccc([N+](=O)[O-])cc2)nc(OCC)n1,–,"inconclusive: 2.33 µM [inhibitor, partial curve, poor fit]"
COc1cccc(CNCc2ccccc2OC)c1,inactive: -13.8%,–
CCOc1ccc(NC(=O)c2ccc(NC(=S)NC3CCCCC3)cc2)cc1,–,"inconclusive: 7.38 µM [inhibitor, partial curve, poor fit]"
Cc1ccc2nc3c(cc(C(=O)NCCN4CCOCC4)c(=N)n3CCCN3CCOCC3)c(=O)n2c1,–,"inconclusive: 18.5 µM [inhibitor, single point]"
Cc1cc(=O)oc2c(C)c(OCC(=O)N3CCN(C(=O)C4COc5ccccc5O4)CC3)ccc12 (stereo not drawn),–,active: 9.28 µM
CCOC(=O)c1ccc(NC(=O)c2nc[nH]c2C(=O)N[C@@H](Cc2ccccc2)C(=O)OC(C)(C)C)cc1,–,"inconclusive: 3.29 µM [inhibitor, partial curve]"
Cc1cc(C)cc(NC(=O)CSc2nc3ccccc3nc2N2CCCC2)c1,–,"inconclusive: 5.86 µM [inhibitor, partial curve]"
COc1ccc(N2C(=O)CSC2c2cccc(F)c2)cc1 (stereo not drawn),inactive: -0.416%,–
Cc1ccc(N(Cc2ccccc2F)S(C)(=O)=O)cc1C,–,"inconclusive: 7.38 µM [inhibitor, partial curve]"
Cc1ccccc1N=C1SCCN1C(=O)CN1C(=O)NC2(CCCC2)C1=O,inactive: -3.05%,–

Structure (SMILES),"activity change, negative = inhibition",Potency
O=C(Nc1ncn[nH]1)c1ccc(Cl)c(Cl)c1,inactive: 2.72%,–
CN(C(=O)COC(=O)COc1ccc(Cl)cc1)C1CCCCC1,inactive: -15.2%,–
CC(NC(=O)C(=O)N1CCOCC1)C(c1cccs1)N1CCN(c2ccccc2)CC1 (stereo not drawn),–,"inconclusive: 14.7 µM [inhibitor, single point]"
CCCCn1c(N2CCC(Cc3ccccc3)CC2)nc2c1c(=O)[nH]c(=O)n2C,–,"inconclusive: 18.5 µM [inhibitor, single point]"
O=C(O)c1ccccc1Oc1ccc(Oc2ccccc2)cc1,–,"inconclusive: 18.5 µM [inhibitor, single point]"
O=C(COc1ccc(Cl)cc1)N(Cc1ccc(F)cc1)C1CCS(=O)(=O)C1 (stereo not drawn),–,"inconclusive: 13.1 µM [inhibitor, partial curve, poor fit]"
CSc1ncccc1C(=O)Nc1ccncc1,–,"inconclusive: 18.5 µM [inhibitor, single point]"
Cc1cc(C)nc(NS(=O)(=O)c2ccc(NC(=O)CN3C(=O)S/C(=C\c4ccccc4)C3=O)cc2)n1,–,"inconclusive: 1.65 µM [inhibitor, full curve, poor fit]"
COC(=O)C(C)Sc1nnc(Cc2cc(=O)[nH]c(=O)[nH]2)n1-c1cc(C)ccc1C (stereo not drawn),inactive: 2.77%,–
CCCOC(=O)c1cc2ccccc2oc1=O,–,"inconclusive: 20.8 µM [inhibitor, partial curve, poor fit]"
CCc1ccc(CN(C)C(=O)CCc2nnc(-c3ccc(-c4ccccc4)cc3)o2)nc1,–,active: 11.7 µM
COCCNC(=S)Nc1cc(OC)c(OC)cc1C#N,inactive: 2.69%,–
C/C(=N\NC(=O)CCC(=O)Nc1ccc(C)c(C)c1)C1CC1,–,"inconclusive: 18.5 µM [inhibitor, single point]"
O=C(COc1ccc(-c2nnco2)cc1)NC1CCCc2ccccc21 (stereo not drawn),–,"inconclusive: 18.5 µM [inhibitor, single point]"
COc1ccc(CCNC(=O)[C@@H](NC(=O)N2CC(=O)Nc3ccccc32)C(C)C)cc1OC,–,active: 11.7 µM
COc1cccc(COC(=O)c2ccc3c(=O)n4c(nc3c2)CCC4)c1OC,–,"inconclusive: 11.7 µM [inhibitor, partial curve]"
N#Cc1c(-c2ccc(Cl)cc2Cl)nc2n(c1=O)CCS2,inactive: 311%,–
CC(C)N1CCc2c(sc(NC(=O)c3cc4cc([N+](=O)[O-])ccc4s3)c2C(N)=O)C1,–,"inconclusive: 16.5 µM [inhibitor, single point]"
CCC(C(=O)N1CCN(S(=O)(=O)c2ccc(F)cc2)CC1)c1ccccc1 (stereo not drawn),–,"inconclusive: 3.7 µM [inhibitor, partial curve, poor fit]"
COc1ccc2nc(Nc3nc4ccc(NC(C)=O)cc4s3)sc2c1,–,"inconclusive: 10.4 µM [inhibitor, single point]"
CCc1ccccc1NC(=O)CCNS(=O)(=O)c1ccc2c(c1)CCC(=O)N2,–,"inconclusive: 18.5 µM [inhibitor, single point]"

# Single records, from the list above:
# Cc1cc(C)nc(NS(=O)(=O)c2ccc(NC(=O)CN3C(=O)S/C(=C\c4ccccc4)C3=O)cc2)n1 in the list: Potency: inconclusive: 1.65 µM [inhibitor, full curve, poor fit]
# O=C(COc1ccc(-c2nnco2)cc1)NC1CCCc2ccccc21 (stereo not drawn) in the list: Potency: inconclusive: 18.5 µM [inhibitor, single point]
# COc1cccc(COC(=O)c2ccc3c(=O)n4c(nc3c2)CCC4)c1OC in the list: Potency: inconclusive: 11.7 µM [inhibitor, partial curve]
